Values from PubChem BioAssay AID1259254 (NCATS, 2017).
This is an unselected part of about 59,000 deposited reagents. Over the whole deposit, about 1,550 (2.6%) are marked active. 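G2 share is only a proxy for re-replication; each gene was hit by three separate siRNAs, and active genes were retested.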 Unmarked entries are inactive. The numbers tell different reagents against one gene apart. Further read-outs or replicates are left out here. Not given: the amount of reagent.

- Assay: 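Finding genes that stop cells copying their DNA twice in one cycle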 (primary screen)
- Cells: human HCT116 colorectal cancer cells
- Reagent: single siRNA against human genes
- Time to read-out: 3 days
- Measurement: 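Imaged Hoechst DNA stain sorts each cell into a cycle phase by DNA amount; per plate, G2 fraction set to 0% for non-targeting and 100% for GMNN siRNA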
- Reading the numbers: G2 robust z-score and G2 cells, % of GMNN control: higher = more G2 cells, more excess DNA replication
- Hit rule: 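Active siRNAs have a G2 robust z of 5 or more median absolute deviations over the median, which in these data means about 38% or higher of GMNN control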

Against ARSJ #1 the deposit lists G2 robust z-score 5.24 (active); G2 cells, % of GMNN control 39.8. Against ARSJ #2 the deposit lists G2 robust z-score 0.529; G2 cells, % of GMNN control 6.69. Against ARSJ #3, the entry reads G2 robust z-score 1.44; G2 cells, % of GMNN control 13.1. Depletion of MMD #1 came out at: G2 robust z-score -0.269; G2 cells, % of GMNN control 1.08. Against MMD #2, the entry reads G2 robust z-score 4.59; G2 cells, % of GMNN control 35.2. Depletion of MMD #3 resulted in: G2 robust z-score 1.24; G2 cells, % of GMNN control 11.7.

Knock-down of RNF40 #1 resulted in: G2 robust z-score 0.674; G2 cells, % of GMNN control 7.71. RNF40 #2 showed G2 robust z-score -0.115; G2 cells, % of GMNN control 2.16. RNF40 #3 gave G2 robust z-score 0.0654; G2 cells, % of GMNN control 3.43. With knock-down of TMEM252 #1, the screen gave G2 robust z-score -0.137; G2 cells, % of GMNN control 2. For TMEM252 #2, the entry reads G2 robust z-score 1.33; G2 cells, % of GMNN control 12.3. Against TMEM252 #3, the entry reads G2 robust z-score 3.68; G2 cells, % of GMNN control 28.8.

USP39 #1 showed G2 robust z-score -0.828; G2 cells, % of GMNN control -2.86. Silencing of USP39 #2 came out at: G2 robust z-score 1.79; G2 cells, % of GMNN control 15.6. After knock-down of USP39 #3 the results were G2 robust z-score -0.265; G2 cells, % of GMNN control 1.1. Against TGM4 #1, the entry reads G2 robust z-score -0.769; G2 cells, % of GMNN control -2.44. For TGM4 #2, the entry reads G2 robust z-score -0.0803; G2 cells, % of GMNN control 2.4. Silencing of TGM4 #3 gave: G2 robust z-score -0.232; G2 cells, % of GMNN control 1.34.

Knock-down of MICA #1 came out at: G2 robust z-score 0.399; G2 cells, % of GMNN control 5.77. MICA #2 showed G2 robust z-score -0.734; G2 cells, % of GMNN control -2.19. With knock-down of MICA #3 the results were G2 robust z-score -0.23; G2 cells, % of GMNN control 1.35. With knock-down of PTCHD1 #1, the record shows G2 robust z-score 0.319; G2 cells, % of GMNN control 5.21. For PTCHD1 #2 the deposit lists G2 robust z-score 1.78; G2 cells, % of GMNN control 15.5. With knock-down of PTCHD1 #3, the record shows G2 robust z-score -0.475; G2 cells, % of GMNN control -0.375.

Depletion of ATG10 #1 came out at: G2 robust z-score 12.9 (active); G2 cells, % of GMNN control 94. ATG10 #2 showed G2 robust z-score -0.284; G2 cells, % of GMNN control 0.971. Against ATG10 #3, the entry reads G2 robust z-score 0.133; G2 cells, % of GMNN control 3.9. After knock-down of SGPP2 #1, the record shows G2 robust z-score -0.644; G2 cells, % of GMNN control -1.56. Silencing of SGPP2 #2 gave: G2 robust z-score 6.17 (active); G2 cells, % of GMNN control 46.3. Against SGPP2 #3, the values are G2 robust z-score 0.973; G2 cells, % of GMNN control 9.81.

4 of these entries, reformatted:
| gene symbol | siRNA no. | G2 robust z-score | G2 cells, % of GMNN control |
| --- | --- | --- | --- |
| ARSJ | 1 | 5.24 (active) | 39.8 |
| ARSJ | 2 | 0.529 | 6.69 |
| ARSJ | 3 | 1.44 | 13.1 |
| MMD | 1 | -0.269 | 1.08 |
